Source: PubChem BioAssay AID743454 (Peter MacCallum Cancer Centre, 2014)

Screen: 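Knock-downs lowering viability or raising caspase 3/7 activity in vorinostat-treated resistant cells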 (primary screen)
Cells: human HCT116-VR colon cancer cells, selected for vorinostat resistance
Reagents: siRNA pool against human genes, 40 nM siRNA pool
Duration: vorinostat for 24 h, read-out about 72 h after transfection
Conditions: vorinostat at 2.5 µM final
Detection: 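Two measures, CellTiter-Fluor viability and luminescent caspase 3/7 activity, each as fold change against same-plate mock wells, mean of duplicates, then screen-wide robust z-score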
Direction: viability robust z-score: higher = more viable cells than screen typical; caspase robust z-score: higher = more caspase 3/7 activity than screen typical
Rule for the call: 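Hits are knock-downs in viability class RV1/RV2 or caspase class CA1/CA2, excluding ones that killed cells in the no-drug cell-count arm; hits then retested with single siRNAs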
The whole screen tested about 18,000 reagents; shown is a random part of them. 450 of all reagents (2.5%) count as active. 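Single biological run; no consistent viability z cut-off exists, so the class columns, not z-scores, define the calls.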

gene | viability hit class | caspase hit class | viability robust z-score | caspase robust z-score | call
STAR | no change | no change | -1.88 | 2.16 | inactive
CDIN1 | no change | no change | -1.5 | 1.33 | inactive
PTCD2 | no change | no change | -1.44 | -0.16 | inactive
TMOD3 | no change | no change | -0.58 | 1.88 | inactive
TCEAL4 | no change | no change | -1.28 | -0.18 | inactive
CCNYL1 | no change | no change | -0.04 | 0.48 | inactive
BMPER | no change | no change | -0.46 | -0.45 | inactive
ERC2 | no change | no change | -0.99 | -0.94 | inactive
POLR2A | no change | no change | -4.39 | 1.94 | inactive
DDIT4 | no change | no change | 1.26 | -0.3 | inactive
PLOD3 | no change | no change | -1.9 | -0.05 | inactive
USP45 | RV2 (reduced viability) | no change | -3.21 | 3.16 | active
NXNL2 | no change | no change | -0.94 | -0.14 | inactive
PLD6 | no change | no change | -1.57 | 1.04 | inactive
TBX6 | no change | no change | -0.65 | 0.62 | inactive
SEC22A | no change | no change | 1.05 | 0.77 | inactive
ARHGAP10 | no change | no change | 0.59 | 0.16 | inactive
FAM167B | no change | no change | -0.44 | -0.97 | inactive
ABLIM3 | no change | no change | -1.38 | -0.38 | inactive
DENND2A | no change | no change | 0.66 | -0.34 | inactive
C5AR2 | no change | no change | 0.14 | 3.09 | inactive
ACSM1 | no change | no change | -0.48 | 0.07 | inactive
ZNF321P | no change | no change | -0.89 | 0.16 | inactive
TSSC4 | no change | no change | 0.39 | -0.28 | inactive
PEBP4 | no change | no change | -0.4 | -0.46 | inactive
ROBO1 | no change | no change | -0.11 | -0.19 | inactive
DOCK7 | no change | no change | 0.62 | 0.15 | inactive
TNNI2 | no change | no change | -0.52 | 2.62 | inactive
ERC1 | no change | no change | -0.87 | 0.32 | inactive
ID1 | no change | no change | -1.34 | -0.6 | inactive
KCNH3 | no change | no change | -0.73 | 1.38 | inactive
BID | no change | no change | 0.36 | 0.59 | inactive
MTFR2 | RV1 (reduced viability) | no change | -3.38 | -0.78 | active
FABP9 | no change | no change | -1 | 5.11 | inactive
PPP1R16A | no change | no change | 1.62 | 0.06 | inactive
OR51T1 | no change | no change | -2.22 | 2.1 | inactive
SERPINI2 | no change | no change | 1.84 | 1.45 | inactive
SGCB | no change | no change | -0.1 | 0.4 | inactive
FAM187B | no change | no change | 0.82 | -0.5 | inactive
BCL7B | no change | no change | -0.18 | 1.7 | inactive
KCTD13 | no change | no change | 0.09 | 0.02 | inactive
NDUFB8 | no change | no change | -1.65 | -0.14 | inactive
SLC4A1AP | no change | no change | -0.81 | -0.38 | inactive
CAMKK1 | no change | no change | 1.36 | -0.05 | inactive
FCAMR | no change | no change | 0.45 | -0.38 | inactive
CTC1 | no change | no change | 1.02 | -0.74 | inactive
RPL27 | no change | no change | -5.56 | -0.95 | inactive
FKBP8 | no change | no change | -1.01 | 1.89 | inactive
OR8H1 | no change | no change | 0.96 | -0.35 | inactive
PLA2G2D | no change | no change | -0.3 | 1.42 | inactive
ENTHD1 | no change | no change | 1.55 | -0.7 | inactive
MGLL | no change | no change | -0.12 | -0.88 | inactive
TXNDC12 | no change | no change | -1.5 | 0.03 | inactive
IRS4 | no change | no change | 0.82 | 0.12 | inactive
RAD9A | no change | no change | -1.31 | -0.45 | inactive
TH | no change | no change | -0.47 | -0.2 | inactive
GNMT | no change | no change | 1.66 | 0.05 | inactive

Reagents listed so far marked active:
gene | viability hit class | caspase hit class | viability robust z-score | caspase robust z-score | call
USP45 | RV2 (reduced viability) | no change | -3.21 | 3.16 | active
MTFR2 | RV1 (reduced viability) | no change | -3.38 | -0.78 | active
